Measured values taken from patent publication US10822315B2, “5-benzylidene-4-oxazolidinones” (NORTH CAROLINA STATE UNIVERSITY, priority 2016, dated 2020).
Some of these results come from one statement about several compounds together.

Test system: red blood cells
Assay: Lysis of red blood cells
Assay type: cell-based

Row | Compound | red blood cells lysed (100 μM) | red blood cells lysed (20 μM)
1 | CCCCC(Cl)(Cl)C1NC(=O)/C(=C/c2ccc(C(F)(F)F)cc2)O1 (stereo not drawn) [Compound 1, (Z)-2-(1,1-dichloropentyl)-5-(4-(trifluoromethyl)benzylidene)oxazolidin-4-one] | < 1% | 
2 | O=C1NC(C(Cl)(Cl)Cc2ccccc2)O/C1=C\c1ccc(C(F)(F)F)cc1 (stereo not drawn) [Compound 2, (Z)-2-(1,1-dichloro-2-phenylethyl)-5-(4-(trifluoromethyl)benzylidene)oxazolidin-4-one] | < 1% | 
3 | CCCCCCCCC(Cl)(Cl)C1NC(=O)/C(=C/c2ccc(C(F)(F)F)cc2)O1 (stereo not drawn) [Compound 3, (Z)-2-(1,1-dichlorononyl)-5-(4-(trifluoromethyl)benzylidene)oxazolidin-4-one] |  | < 1%
